Source: PubChem BioAssay AID1159598 (NIAID, 2016)
The whole screen tested 756 reagents; below is an unselected part. 142 of them (19%) count as active. 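Active includes both higher and lower reporter signal; each gene has six separate siRNAs, and no gene-level summary is deposited.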 The numbers tell different reagents against one gene apart. Not stated in the record: the amount of reagent.

- Test: 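Canonical TLR pathway genes needed for TNF promoter response to flagellin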
- Cell system: human THP-1 B5 reporter cells made macrophage-like with PMA
- Reagents: single siRNA against human genes
- Time to read-out: reporter read 48 to 72 hours after siRNA transfection
- Treatment: flagellin stimulation for 4 hours, dose not given
- Detection: 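Firefly to renilla ratio from a TNF promoter reporter after 4 h flagellin, as robust z against negative controls averaged across replicates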
- Reading the numbers: TNF reporter z-score: higher = stronger TNF promoter activity than controls
- Hit rule: 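Active means the mean reporter z is about 1.5 or more, or about -1.5 or less; values closer to zero are inactive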
- Meaning of the calls: active = reporter shifted beyond 1.5 z, up or down; inactive = reporter within 1.5 z of controls

TNF reporter z-score, by gene and reagent
IRAK2 (interleukin 1 receptor associated kinase 2): #1 0.589 inactive; #2 -1.37 inactive; #3 0.119 inactive; #4 0.135 inactive; #5 -1.91 active; #6 1.07 inactive
PIK3R1 (phosphoinositide-3-kinase regulatory subunit 1): #1 0.725 inactive; #2 -0.0273 inactive; #3 -0.0965 inactive; #4 -1.47 inactive; #5 -1.63 active; #6 0.164 inactive
TIRAP (TIR domain containing adaptor protein): #1 0.141 inactive; #2 -2.92 active; #3 -0.878 inactive; #4 -0.235 inactive; #5 0.548 inactive; #6 -0.348 inactive
ATF2 (activating transcription factor 2): #1 -1.8 active; #2 0.0901 inactive; #3 -0.485 inactive; #4 0.179 inactive; #5 -0.243 inactive; #6 -2.17 active
NFKB1 (nuclear factor kappa B subunit 1): #1 -1.67 active; #2 -0.833 inactive; #3 -1.68 active; #4 -1.3 inactive; #5 0.899 inactive; #6 -0.617 inactive
TRAF3 (TNF receptor associated factor 3): #1 -1.21 inactive; #2 -2.79 active; #3 0.182 inactive; #4 -0.883 inactive; #5 -0.78 inactive; #6 1.04 inactive
BTK (Bruton tyrosine kinase): #1 0.276 inactive; #2 0.304 inactive; #3 -0.973 inactive; #4 -0.958 inactive; #5 -0.278 inactive; #6 0.228 inactive
TBK1 (TANK binding kinase 1): #1 -1.68 active; #2 -1.3 inactive; #3 1.3 inactive; #4 0.389 inactive; #5 -0.6 inactive; #6 -0.528 inactive
MAP2K1 (mitogen-activated protein kinase kinase 1): #1 0.575 inactive; #2 -0.53 inactive; #3 -0.753 inactive; #4 -0.155 inactive; #5 -0.738 inactive; #6 0.757 inactive
IL33R (interleukin 33 receptor): #1 -0.704 inactive; #2 -0.38 inactive; #3 -0.239 inactive; #4 1.05 inactive; #5 -1.19 inactive; #6 -0.842 inactive
TLR7 (toll like receptor 7): #1 -0.547 inactive; #2 0.885 inactive; #3 -0.294 inactive; #4 -0.438 inactive; #5 0.0477 inactive; #6 -0.247 inactive
MAP2K7 (mitogen-activated protein kinase kinase 7): #1 -0.395 inactive; #2 -1.88 active; #3 -0.906 inactive; #4 -1.14 inactive; #5 -1.9 active; #6 -0.977 inactive
MAP2K6 (mitogen-activated protein kinase kinase 6): #1 0.0256 inactive; #2 -0.81 inactive; #3 -0.0299 inactive; #4 -0.326 inactive; #5 0.0346 inactive; #6 -0.923 inactive
IKBKB (inhibitor of nuclear factor kappa B kinase subunit beta): #1 0.403 inactive; #2 -0.783 inactive; #3 0.111 inactive; #4 0.164 inactive; #5 -0.104 inactive; #6 0.901 inactive
IKBKG: #1 -1.53 active; #2 -1.08 inactive; #3 -0.631 inactive; #4 -1.44 inactive; #5 0.575 inactive; #6 -1.03 inactive
MAP3K8 (mitogen-activated protein kinase kinase kinase 8): #1 -2.02 active; #2 -1.54 active; #3 -2.38 active; #4 -1.65 active; #5 -2.14 active; #6 -0.63 inactive
TNF (tumor necrosis factor): #1 -0.85 inactive; #2 -0.876 inactive; #3 -3.62 active; #4 -0.0953 inactive; #5 -1.53 active; #6 -2.71 active
ELK1 (ETS transcription factor ELK1): #1 -1.41 inactive; #2 -0.966 inactive; #3 -1.14 inactive; #4 0.291 inactive; #5 -0.446 inactive; #6 0.767 inactive
TLR4 (toll like receptor 4): #1 -0.197 inactive; #2 -0.809 inactive; #3 0.164 inactive; #4 0.612 inactive; #5 -0.404 inactive; #6 -0.61 inactive

19 entries from above, ordered by “TNF reporter z-score”, lowest first:
Gene	siRNA no.	TNF reporter z-score	Outcome
TIRAP (TIR domain containing adaptor protein)	2	-2.92	active
IRAK2 (interleukin 1 receptor associated kinase 2)	5	-1.91	active
ATF2 (activating transcription factor 2)	1	-1.8	active
PIK3R1 (phosphoinositide-3-kinase regulatory subunit 1)	5	-1.63	active
PIK3R1 (phosphoinositide-3-kinase regulatory subunit 1)	4	-1.47	inactive
IRAK2 (interleukin 1 receptor associated kinase 2)	2	-1.37	inactive
TIRAP (TIR domain containing adaptor protein)	3	-0.878	inactive
TIRAP (TIR domain containing adaptor protein)	6	-0.348	inactive
TIRAP (TIR domain containing adaptor protein)	4	-0.235	inactive
PIK3R1 (phosphoinositide-3-kinase regulatory subunit 1)	3	-0.0965	inactive
PIK3R1 (phosphoinositide-3-kinase regulatory subunit 1)	2	-0.0273	inactive
ATF2 (activating transcription factor 2)	2	0.0901	inactive
IRAK2 (interleukin 1 receptor associated kinase 2)	3	0.119	inactive
IRAK2 (interleukin 1 receptor associated kinase 2)	4	0.135	inactive
TIRAP (TIR domain containing adaptor protein)	1	0.141	inactive
PIK3R1 (phosphoinositide-3-kinase regulatory subunit 1)	6	0.164	inactive
TIRAP (TIR domain containing adaptor protein)	5	0.548	inactive
PIK3R1 (phosphoinositide-3-kinase regulatory subunit 1)	1	0.725	inactive
IRAK2 (interleukin 1 receptor associated kinase 2)	6	1.07	inactive
